## Library screen at single concentrations

Amino acid sequences for entries named in this document (tags omitted).
UniProt P9WNZ1, whole entry: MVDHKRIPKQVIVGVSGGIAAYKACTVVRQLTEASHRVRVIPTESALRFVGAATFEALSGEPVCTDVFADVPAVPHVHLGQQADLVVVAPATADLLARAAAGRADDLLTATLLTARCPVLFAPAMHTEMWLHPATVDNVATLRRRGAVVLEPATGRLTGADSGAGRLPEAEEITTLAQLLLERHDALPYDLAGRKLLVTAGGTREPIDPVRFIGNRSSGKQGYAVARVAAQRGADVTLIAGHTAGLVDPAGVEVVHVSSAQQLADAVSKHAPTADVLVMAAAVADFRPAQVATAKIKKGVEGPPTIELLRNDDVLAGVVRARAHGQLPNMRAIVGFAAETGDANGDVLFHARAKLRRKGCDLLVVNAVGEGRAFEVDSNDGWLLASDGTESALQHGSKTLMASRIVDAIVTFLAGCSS

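Coenzyme A biosynthesis protein CoaBC, Mycobacterium tuberculosis (UniProt P9WNZ1). Enzyme assay of CoaBC with a phosphate dye (Biomol Green) read at 650 nm. Tested at 30 µM. Higher reads as stronger inhibition, judged from the few compounds that gave an IC50. Most strong results did not repeat in a second test. About 67,000 compounds were tested under these conditions; 0.06% (about 40) showed 50% or more at least once.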

Results are given as percent effect.
The controls that fix the scale are not given in the record; negative values are as filed.
The compounds are a random part of those screened.
Two or more numbers in one place are separate tests of the same structure; such repeats can differ widely.

SMILES,percent effect
CCN1C(=O)CO[C@@H]2CN(C(=O)C3CCOCC3)C[C@H]21,-0.5076
O=C(Cc1ccccn1)N1CCC(c2noc(-c3ccncc3)n2)CC1,9.002
Cc1nc(C)c(CC(=O)N2C[C@@H](C(=O)O)[C@H](c3ccccc3C)C2)s1,11.68
c1ccc(Cc2noc(CN3CCOC(Cn4cncn4)C3)n2)cc1 (stereo unspecified),4.592
CCCOC1CCCN(C(=O)Cn2cccc(C(F)(F)F)c2=O)C1 (stereo unspecified),2.137
Cc1cccc(COC[C@]23COC[C@H]2CN(c2ncccn2)C3)n1,10.34
Cc1cc(NC(=O)CN2CCN(c3nccs3)C(C)C2)no1 (stereo unspecified),46.05 & 15.98
Cc1nn(C)c(N(C)C)c1CNCc1ccnc(N2CCCC2)c1,13.87
COC(=O)c1cccc(C(=O)NCc2ccc(C)o2)n1,1.519
CC(C(=O)Nc1cccc(N2CCCCC2)c1)n1cncn1 (stereo unspecified),4.626
CC(C)c1nn(C)cc1CNC1CCOc2ccccc21 (stereo unspecified),6.633
COCCn1cc(CC(=O)Nc2c(C)nn(C)c2C)c2ccccc21,-8.516
O=C(CC(F)(F)F)N1C[C@H]2CN(CC3CC3)C(=O)[C@H]2C1,2.799
CCc1cnc(C)nc1NCCN1CCCC(C(N)=O)C1 (stereo unspecified),-0.8157
OC1(CN2CCc3nnc(Cc4cccnc4)n3CC2)CCCNC1 (stereo unspecified),1.394
CCc1nnc(NC(=O)c2c3c(nn2C2CCS(=O)(=O)C2)CCC3)s1 (stereo unspecified),3.38
Cc1nc(CN2CCCN(C(=O)c3ccccn3)CC2)oc1C,5.641
O=C(CN1CCC(c2ccccc2)C1)NCC(F)(F)F (stereo unspecified),6.717
c1ccc(-c2cc(NCCCC3CCOC3)n3nccc3n2)cc1 (stereo unspecified),9.259
Cc1cc(=O)n2nc(-c3cccs3)nc2n1CC(=O)NC(C)C,3.038
NC1CCN(C(=O)c2c(F)cccc2Br)CC1,2.723
Cc1noc(C)c1C(C)NC(=O)N1CCCN(C(=O)c2ccsc2)CC1 (stereo unspecified),7.018
O=C1CCc2cc(S(=O)(=O)NC(=O)c3ccc4c(c3)COC4)ccc2N1,1.707
O=C(O)c1ccc(COc2cccc(Cl)c2)s1,0.2309
Cc1ccc(OCCN(C)Cc2nccn2C)c(C)c1,2.404
Cc1cnc(NC(=O)NC(CCO)c2cccs2)s1 (stereo unspecified),-2.428
Cc1cnc(C(=O)N2CCOCC2C)cn1 (stereo unspecified),5.097
Cc1nccc(N(C)Cc2ncc(-c3ccccc3C(=O)O)s2)n1,-2.959
CCCOc1ccc(CC2=NC(C)(CO)CO2)cc1 (stereo unspecified),-16.15
COc1ccc(CN2CCCn3cncc3C2)cc1Cn1cncn1,9.073
O=C1CSc2ccc(C(=O)N3CCCC(n4cccn4)C3)cc2N1 (stereo unspecified),0.6593
COCC(=O)N1CC[C@@H]2O[C@H](COCc3csc(C)n3)CC[C@@H]21,5.076
CN(CCCSc1ccccc1)C(=O)Cn1ncc(N(C)C)cc1=O,2.814
COCCC(=O)N1CCC2(COCc3cnc(NCC4CC4)nc32)C1 (stereo unspecified),2.343
Cc1ccc(-c2noc([C@@H]3C[C@H](NC(=O)CC(C)(C)C)CN3C)n2)cc1,10.02
CN(Cc1ccncn1)C(=O)C1(Oc2ccc(Cl)cc2)CCNCC1,-5.372
CN(C)c1ncnc2c1CCN(CC1CCOCC1)CC2,5.562
Cc1nc(N)cc(C2(C)CCCNC2)n1 (stereo unspecified),9.201
CCCS(=O)(=O)CCN1CCN(C(C#N)c2ccccc2)CC1 (stereo unspecified),-0.1215
Cc1cccc(C(=O)N2CCCCC2c2nc3cc(F)ccc3[nH]2)n1 (stereo unspecified),1.531
Cn1ncc2c1CCCC2NCc1cccc(C(F)(F)F)c1 (stereo unspecified),2.678
CCc1oc(C(=O)N(C)Cc2ccncc2)cc1CN(CC)CC,2.169
Cn1nc(CNC(=O)c2ccc(Cl)cc2)c2c1CCOC2,1.394
CC(c1ccco1)N(C(=O)COc1ccc(C#N)cc1)C1CC1 (stereo unspecified),-1.935
Cc1nc(C)n(C2CCCN(C(=O)c3ccc(CN(C)C)cc3)C2)n1 (stereo unspecified),7.597
CSCc1noc(Cn2ccc3ccccc3c2=O)n1,-1.023
CN(C)C(=O)CCCNc1ncc2c(n1)CCN2c1ccccc1,5.15
CN(C)CCn1nc(C2CCN(Cc3ccccc3)C2)c2cccnc21 (stereo unspecified),-0.4566
CC(C)(C)CC(=O)N1CC[C@H]2NC(=O)N(Cc3ccccc3)C(=O)[C@H]21,6.546
Cc1cccnc1CNCC1(O)CCCN(CC2CCC2)C1=O (stereo unspecified),5.076
CCN(CC)c1ccc(C(=O)N2C[C@@H]3CC[C@H](C2)N(CCOC)C3)cc1,6.49
CC(C)c1ncc(C(=O)N2CCOCC2CC(=O)c2ccco2)s1 (stereo unspecified),3.008
O=C(Cc1cccc(F)c1)NCCNCc1ccc2c(c1)CCO2,0.4819
COc1ncccc1C(=O)NCCn1nc(C)ccc1=O,5.765
NCCc1c(-c2ccccc2)[nH][nH]c1=O,-2.895
O=C(c1ccncc1F)N1CCc2ncnc(C3CC3)c2CC1,6.853
Cc1cc(C)n(-c2ccc(N3CCCSCC3)nc2)n1,-10.04
CC(C)n1ccnc1C1CCN(C(=O)c2ccccc2N(C)C)CC1,-0.1206
Cc1ccc2c(c1)C(NCc1ccccn1)CC2 (stereo unspecified),7.54
NC(=O)Cn1ccnc1C1CCCN(Cc2cccc(Cl)c2F)C1 (stereo unspecified),3.194
CCNC(=O)N(C)C(c1ccccc1)c1ccccn1 (stereo unspecified),5.974
Cn1[nH]c(C2CC2)c(-c2ccc3c(c2)OCO3)c1=N,0.9926
Cc1ncc(CNC2CC(=O)N(CCc3cccc(Cl)c3)C2)n1C (stereo unspecified),3.393
O=C(c1ccncc1)N1CCC(Oc2cccc(C(F)(F)F)c2)CC1,1.597
CN(C)C(=O)N[C@@H]1CN(C2CCOCC2)[C@@H]2CCCO[C@@H]21,0.2114
Cn1ccnc(Nc2ccc3c(c2)CCN3C(=O)c2cccnc2)c1=O,-2
CC(C(=O)NCc1ccc2c(c1)OCCO2)n1cncn1 (stereo unspecified),6.796
CCC(=O)N1CCC(NCc2cc(C(F)(F)F)ccc2Cl)C1 (stereo unspecified),0.4854

The last 8 entries again:

SMILES,percent effect
CCNC(=O)N(C)C(c1ccccc1)c1ccccn1 (stereo unspecified),5.974
Cn1[nH]c(C2CC2)c(-c2ccc3c(c2)OCO3)c1=N,0.9926
Cc1ncc(CNC2CC(=O)N(CCc3cccc(Cl)c3)C2)n1C (stereo unspecified),3.393
O=C(c1ccncc1)N1CCC(Oc2cccc(C(F)(F)F)c2)CC1,1.597
CN(C)C(=O)N[C@@H]1CN(C2CCOCC2)[C@@H]2CCCO[C@@H]21,0.2114
Cn1ccnc(Nc2ccc3c(c2)CCN3C(=O)c2cccnc2)c1=O,-2
CC(C(=O)NCc1ccc2c(c1)OCCO2)n1cncn1 (stereo unspecified),6.796
CCC(=O)N1CCC(NCc2cc(C(F)(F)F)ccc2Cl)C1 (stereo unspecified),0.4854

From ChEMBL document CHEMBL3988442, “University of Dundee, Small-Polar-MMV Screening Library” (2021).